{
  "source": "PubChem BioAssay AID248",
  "about": "(DTP/NCI, 2004)",
  "tested_on": "L1210 leukemia ip in BDF1 mice, survival T/C",
  "assay": "NCI In Vivo Anticancer Drug Screen. Data for tumor model L1210 Leukemia (intraperitoneal) in B6D2F1 (BDF1) mice",
  "details": "higher T/C = longer survival",
  "note": "The list is a part of this screen's results and no random one: it is rich in T/C values a quarter to a half above the control, in often repeated tests (any T/C) and in doses without a T/C. Other doses and runs of a compound stand elsewhere. T/C: endpoint of the treated group in % of that of the vehicle group. Some entries give survivors of the animals treated and no T/C: the source holds a T/C of zero for them, seemingly a mark for toxic or unscored doses. Some doses without a T/C left all or most animals alive at the check, yet need not have been tolerated: the source hardly ever lists a survival T/C far under the control, and the zero likely stands for such cases as well. Counts of survivors are from the toxicity check (mostly the fifth day) where no day follows; animals may have died later. Schedules are NCI's codes, read here as Q, the interval in days (D) or hours (H), X, the number of doses. Some schedules carry Z or #; the key to these is not given. Some molecules as drawn cover several salts, stereoisomers or complexes of the source; a dose is that of the sample tested. Some entries hold several experiments; the values are given in rising order. Where survival is the endpoint, the PubChem record calls one and a half times the control and up active, and a quarter to a half above the control has no call in these data; cut-offs in other NCI protocols can differ. Some T/C values are followed by the survivors on the day toxicity was checked, most often the fifth; where none is given, no animal had died by that day.",
  "data": [
    {"smiles": "Cc1c2ccncc2c(C)c2c1[nH]c1ccccc12", "values": [
      {"measurement": "T/C", "setting": "T/C endpoint: mean survival time, dose: 600.0 mg/kg/injection, schedule: Q01DX001 (oral), vehicle: other, evaluated on day 60", "value": "88 [8 of 10 alive] and 143 % of control [9 of 10 alive]"},
      {"measurement": "survivor count", "setting": "T/C endpoint: mean survival time, dose: 600.0 mg/kg/injection, schedule: Q01DX001 (oral), vehicle: other", "value": "0 of 10 and 3 of 10"},
      {"measurement": "survivor count", "setting": "T/C endpoint: mean survival time, dose: 600.0 mg/kg/injection, schedule: Q01DX001 (oral), vehicle: saline with Tween-80", "value": "0 of 10"},
      {"measurement": "survivor count", "setting": "T/C endpoint: mean survival time, dose: 600.0 mg/kg/injection, schedule: Q01DX001 (oral), vehicle: saline", "value": "6 of 10"},
      {"measurement": "survivor count", "setting": "T/C endpoint: mean survival time, dose: 600.0 mg/kg/injection, schedule: Q08DX002 (ip), vehicle: other", "value": "0 of 8"},
      {"measurement": "survivor count", "setting": "T/C endpoint: mean survival time, dose: 600.0 mg/kg/injection, schedule: Q08DX002 (ip), vehicle: steroid suspending solution", "value": "8 of 8"},
      {"measurement": "T/C", "setting": "T/C endpoint: mean survival time, dose: 640.0 mg/kg/injection, schedule: Q01DX001 (ip), vehicle: acid diluted with saline", "value": "133 % of control"},
      {"measurement": "survivor count", "setting": "T/C endpoint: mean survival time, dose: 800.0 mg/kg/injection, schedule: Q01DX001 (oral), vehicle: water", "value": "4 of 6 and 5 of 6"},
      {"measurement": "survivor count", "setting": "T/C endpoint: mean survival time, dose: 960.0 mg/kg/injection, schedule: Q## X008 (oral), vehicle: carboxymethylcellulose (CMC)", "value": "8 of 10"},
      {"measurement": "survivor count", "setting": "T/C endpoint: mean survival time, dose: 960.0 mg/kg/injection, schedule: Q## X008 (oral), vehicle: other", "value": "5 of 10"},
      {"measurement": "survivor count", "setting": "T/C endpoint: mean survival time, dose: 960.0 mg/kg/injection, schedule: Q## X016 (oral), vehicle: other", "value": "3 of 10"},
      {"measurement": "survivor count", "setting": "T/C endpoint: mean survival time, dose: 1200.0 mg/kg/injection, schedule: Q01DX001 (ip), vehicle: steroid suspending solution", "value": "7 of 8"},
      {"measurement": "survivor count", "setting": "T/C endpoint: mean survival time, dose: 1200.0 mg/kg/injection, schedule: Q01DX001 (oral), vehicle: Klucel (hydroxypropylcellulose) (HPC)", "value": "2 of 10"},
      {"measurement": "survivor count", "setting": "T/C endpoint: mean survival time, dose: 1200.0 mg/kg/injection, schedule: Q01DX001 (oral), vehicle: other", "value": "0 of 10 and 4 of 10"},
      {"measurement": "survivor count", "setting": "T/C endpoint: mean survival time, dose: 1200.0 mg/kg/injection, schedule: Q01DX001 (oral), vehicle: saline with Tween-80", "value": "3 of 10"},
      {"measurement": "survivor count", "setting": "T/C endpoint: mean survival time, dose: 1200.0 mg/kg/injection, schedule: Q01DX001 (oral), vehicle: saline", "value": "4 of 10"},
      {"measurement": "survivor count", "setting": "T/C endpoint: mean survival time, dose: 1200.0 mg/kg/injection, schedule: Q08DX002 (ip), vehicle: steroid suspending solution", "value": "7 of 8"},
      {"measurement": "survivor count", "setting": "T/C endpoint: mean survival time, dose: 1200.0 mg/kg/injection, schedule: Q## X002 (oral), vehicle: other", "value": "5 of 10"},
      {"measurement": "T/C", "setting": "T/C endpoint: mean survival time, dose: 1280.0 mg/kg/injection, schedule: Q01DX001 (ip), vehicle: other", "value": "127 % of control"},
      {"measurement": "T/C", "setting": "T/C endpoint: median survival time, dose: 4.0 mg/kg/injection, schedule: Q01DX009 (sc), vehicle: water", "value": "133 % of control"},
      {"measurement": "T/C", "setting": "T/C endpoint: median survival time, dose: 4.0 mg/kg/injection, schedule: Q03HX008 (ip), vehicle: water", "value": "133 % of control"},
      {"measurement": "T/C", "setting": "T/C endpoint: median survival time, dose: 8.0 mg/kg/injection, schedule: Q01DX009 (oral), vehicle: other", "value": "127 % of control [9 of 10 alive]"},
      {"measurement": "T/C", "setting": "T/C endpoint: median survival time, dose: 8.0 mg/kg/injection, schedule: Q03HX008 (oral), vehicle: other", "value": "133 % of control [9 of 10 alive]"},
      {"measurement": "T/C", "setting": "T/C endpoint: median survival time, dose: 8.0 mg/kg/injection, schedule: Q03HX008 (sc), vehicle: water", "value": "144 % of control"},
      {"measurement": "T/C", "setting": "T/C endpoint: median survival time, dose: 16.0 mg/kg/injection, schedule: Q01DX009 (oral), vehicle: other", "value": "133 % of control [8 of 10 alive]"},
      {"measurement": "T/C", "setting": "T/C endpoint: median survival time, dose: 16.0 mg/kg/injection, schedule: Q03HX008 (oral), vehicle: other", "value": "144 % of control [9 of 10 alive]"},
      {"measurement": "survivor count", "setting": "T/C endpoint: median survival time, dose: 16.0 mg/kg/injection, schedule: Q03HX008 (sc), vehicle: water", "value": "10 of 10"},
      {"measurement": "T/C", "setting": "T/C endpoint: median survival time, dose: 25.0 mg/kg/injection, schedule: Q04DX003 (ip), vehicle: saline with Tween-80", "value": "138 % of control"},
      {"measurement": "survivor count", "setting": "T/C endpoint: median survival time, dose: 32.0 mg/kg/injection, schedule: Q03HX008 (ip), vehicle: other", "value": "8 of 10"},
      {"measurement": "survivor count", "setting": "T/C endpoint: median survival time, dose: 32.0 mg/kg/injection, schedule: Q03HX008 (ip), vehicle: water", "value": "2 of 10"},
      {"measurement": "T/C", "setting": "T/C endpoint: median survival time, dose: 64.0 mg/kg/injection, schedule: Q01DX001 (sc), vehicle: water", "value": "144 % of control"},
      {"measurement": "survivor count", "setting": "T/C endpoint: median survival time, dose: 64.0 mg/kg/injection, schedule: Q01DX009 (sc), vehicle: water", "value": "9 of 10"},
      {"measurement": "survivor count", "setting": "T/C endpoint: median survival time, dose: 64.0 mg/kg/injection, schedule: Q03HX008 (ip), vehicle: other", "value": "0 of 10"},
      {"measurement": "survivor count", "setting": "T/C endpoint: median survival time, dose: 64.0 mg/kg/injection, schedule: Q03HX008 (ip), vehicle: water", "value": "0 of 9"},
      {"measurement": "survivor count", "setting": "T/C endpoint: median survival time, dose: 64.0 mg/kg/injection, schedule: Q03HX008 (oral), vehicle: other", "value": "7 of 10"},
      {"measurement": "survivor count", "setting": "T/C endpoint: median survival time, dose: 64.0 mg/kg/injection, schedule: Q03HX008 (sc), vehicle: water", "value": "9 of 10"},
      {"measurement": "T/C", "setting": "T/C endpoint: median survival time, dose: 65.0 mg/kg/injection, schedule: Q01DX001 (ip), vehicle: Klucel (hydroxypropylcellulose) (HPC)", "value": "125 % of control"},
      {"measurement": "T/C", "setting": "T/C endpoint: median survival time, dose: 128.0 mg/kg/injection, schedule: Q01DX001 (oral), vehicle: other", "value": "144 % of control [9 of 10 alive]"},
      {"measurement": "survivor count", "setting": "T/C endpoint: median survival time, dose: 128.0 mg/kg/injection, schedule: Q01DX009 (oral), vehicle: other", "value": "10 of 10"},
      {"measurement": "T/C", "setting": "T/C endpoint: median survival time, dose: 180.0 mg/kg/injection, schedule: Q01DX001 (ip), vehicle: Klucel (hydroxypropylcellulose) (HPC), evaluated on day 5", "value": "127 % of control"},
      {"measurement": "T/C", "setting": "T/C endpoint: median survival time, dose: 180.0 mg/kg/injection, schedule: Q01DX001 (ip), vehicle: Klucel (hydroxypropylcellulose) (HPC), evaluated on day 30", "value": "130 % of control [7 of 8 alive]"},
      {"measurement": "survivor count", "setting": "T/C endpoint: median survival time, dose: 300.0 mg/kg/injection, schedule: Q01DX001 (ip), vehicle: Klucel (hydroxypropylcellulose) (HPC)", "value": "7 of 8"},
      {"measurement": "survivor count", "setting": "T/C endpoint: median survival time, dose: 500.0 mg/kg/injection, schedule: Q01DX001 (ip), vehicle: Klucel (hydroxypropylcellulose) (HPC)", "value": "7 of 8"},
      {"measurement": "survivor count", "setting": "T/C endpoint: median survival time, dose: 512.0 mg/kg/injection, schedule: Q01DX001 (oral), vehicle: other", "value": "10 of 10"}
    ]}
  ]
}
